According to patent publication US20090053203A1:
No constants are given. Whether binding was seen depends on the method and setting. Some binding calls cover weakened binding; strength is not graded here.

Protein sequences, listed by entry. Tags and fused reporters are not part of them. Residues count along the entry.
UniProt P17301, residues 30-1181: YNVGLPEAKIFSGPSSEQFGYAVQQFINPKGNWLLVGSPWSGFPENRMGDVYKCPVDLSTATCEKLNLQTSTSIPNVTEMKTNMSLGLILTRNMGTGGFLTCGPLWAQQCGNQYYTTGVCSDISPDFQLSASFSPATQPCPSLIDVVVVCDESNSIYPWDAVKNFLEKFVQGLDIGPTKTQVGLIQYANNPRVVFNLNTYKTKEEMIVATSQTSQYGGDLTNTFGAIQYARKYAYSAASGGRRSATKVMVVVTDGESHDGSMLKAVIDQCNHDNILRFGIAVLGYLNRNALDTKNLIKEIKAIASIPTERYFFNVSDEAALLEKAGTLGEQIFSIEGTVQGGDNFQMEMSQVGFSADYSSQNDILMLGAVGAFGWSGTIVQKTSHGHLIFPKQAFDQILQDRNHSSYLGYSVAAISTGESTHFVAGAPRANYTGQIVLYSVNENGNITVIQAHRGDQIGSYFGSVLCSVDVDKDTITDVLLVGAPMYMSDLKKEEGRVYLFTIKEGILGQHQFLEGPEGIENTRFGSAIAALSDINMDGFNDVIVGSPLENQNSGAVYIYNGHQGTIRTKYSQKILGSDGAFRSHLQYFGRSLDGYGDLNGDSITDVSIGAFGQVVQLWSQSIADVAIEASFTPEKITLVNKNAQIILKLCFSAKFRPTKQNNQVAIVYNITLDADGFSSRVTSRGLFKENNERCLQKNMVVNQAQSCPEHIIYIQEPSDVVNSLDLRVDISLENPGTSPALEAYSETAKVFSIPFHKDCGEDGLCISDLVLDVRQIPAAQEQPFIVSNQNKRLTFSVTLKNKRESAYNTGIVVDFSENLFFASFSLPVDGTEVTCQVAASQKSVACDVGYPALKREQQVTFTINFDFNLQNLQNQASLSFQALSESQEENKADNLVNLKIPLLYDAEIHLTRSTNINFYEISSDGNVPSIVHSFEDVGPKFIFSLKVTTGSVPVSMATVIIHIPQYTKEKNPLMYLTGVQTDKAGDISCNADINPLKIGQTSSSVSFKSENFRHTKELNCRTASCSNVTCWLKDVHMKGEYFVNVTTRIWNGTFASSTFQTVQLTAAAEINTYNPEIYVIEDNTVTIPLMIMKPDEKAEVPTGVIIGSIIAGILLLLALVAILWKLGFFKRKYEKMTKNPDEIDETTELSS
UniProt P18084, residues 24-799: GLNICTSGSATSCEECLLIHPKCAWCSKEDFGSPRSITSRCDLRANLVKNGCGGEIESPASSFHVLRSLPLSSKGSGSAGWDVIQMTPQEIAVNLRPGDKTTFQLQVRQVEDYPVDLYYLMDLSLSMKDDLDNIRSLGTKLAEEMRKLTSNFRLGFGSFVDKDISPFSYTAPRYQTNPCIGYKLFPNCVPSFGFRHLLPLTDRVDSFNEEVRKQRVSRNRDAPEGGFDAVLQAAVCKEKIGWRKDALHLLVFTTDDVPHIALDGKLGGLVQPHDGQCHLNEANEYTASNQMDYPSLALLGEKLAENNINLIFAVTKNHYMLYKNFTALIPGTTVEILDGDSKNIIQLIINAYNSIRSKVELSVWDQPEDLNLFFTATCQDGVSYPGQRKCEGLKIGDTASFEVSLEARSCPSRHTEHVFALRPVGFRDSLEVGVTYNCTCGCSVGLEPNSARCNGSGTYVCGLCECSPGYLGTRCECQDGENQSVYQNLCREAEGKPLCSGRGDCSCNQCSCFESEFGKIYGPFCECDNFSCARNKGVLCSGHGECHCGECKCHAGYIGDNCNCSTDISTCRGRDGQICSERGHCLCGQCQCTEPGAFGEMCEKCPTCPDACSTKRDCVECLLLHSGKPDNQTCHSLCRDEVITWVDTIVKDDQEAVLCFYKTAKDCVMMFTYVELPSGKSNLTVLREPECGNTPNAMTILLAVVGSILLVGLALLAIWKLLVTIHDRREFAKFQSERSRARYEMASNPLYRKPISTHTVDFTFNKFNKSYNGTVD
UniProt P05106, residues 27-788: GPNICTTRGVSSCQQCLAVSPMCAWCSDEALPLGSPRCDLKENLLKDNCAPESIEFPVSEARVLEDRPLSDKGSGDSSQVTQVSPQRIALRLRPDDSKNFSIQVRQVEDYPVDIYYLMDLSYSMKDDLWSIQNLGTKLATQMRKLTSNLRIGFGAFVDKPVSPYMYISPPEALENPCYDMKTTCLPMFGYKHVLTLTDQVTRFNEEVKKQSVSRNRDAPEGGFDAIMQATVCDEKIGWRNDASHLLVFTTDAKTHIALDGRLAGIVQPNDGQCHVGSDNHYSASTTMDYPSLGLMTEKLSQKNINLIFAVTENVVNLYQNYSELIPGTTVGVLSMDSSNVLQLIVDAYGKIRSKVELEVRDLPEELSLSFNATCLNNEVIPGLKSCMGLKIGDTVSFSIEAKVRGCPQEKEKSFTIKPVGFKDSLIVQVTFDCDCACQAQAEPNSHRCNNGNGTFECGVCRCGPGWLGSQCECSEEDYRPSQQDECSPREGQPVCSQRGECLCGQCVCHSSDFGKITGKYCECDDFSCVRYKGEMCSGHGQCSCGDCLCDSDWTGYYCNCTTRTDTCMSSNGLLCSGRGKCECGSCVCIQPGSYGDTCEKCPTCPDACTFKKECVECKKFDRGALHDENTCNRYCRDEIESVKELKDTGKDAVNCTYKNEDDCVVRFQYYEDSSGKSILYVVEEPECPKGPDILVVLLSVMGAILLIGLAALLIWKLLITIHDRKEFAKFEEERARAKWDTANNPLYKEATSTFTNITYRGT
UniProt P08648, residues 42-1049: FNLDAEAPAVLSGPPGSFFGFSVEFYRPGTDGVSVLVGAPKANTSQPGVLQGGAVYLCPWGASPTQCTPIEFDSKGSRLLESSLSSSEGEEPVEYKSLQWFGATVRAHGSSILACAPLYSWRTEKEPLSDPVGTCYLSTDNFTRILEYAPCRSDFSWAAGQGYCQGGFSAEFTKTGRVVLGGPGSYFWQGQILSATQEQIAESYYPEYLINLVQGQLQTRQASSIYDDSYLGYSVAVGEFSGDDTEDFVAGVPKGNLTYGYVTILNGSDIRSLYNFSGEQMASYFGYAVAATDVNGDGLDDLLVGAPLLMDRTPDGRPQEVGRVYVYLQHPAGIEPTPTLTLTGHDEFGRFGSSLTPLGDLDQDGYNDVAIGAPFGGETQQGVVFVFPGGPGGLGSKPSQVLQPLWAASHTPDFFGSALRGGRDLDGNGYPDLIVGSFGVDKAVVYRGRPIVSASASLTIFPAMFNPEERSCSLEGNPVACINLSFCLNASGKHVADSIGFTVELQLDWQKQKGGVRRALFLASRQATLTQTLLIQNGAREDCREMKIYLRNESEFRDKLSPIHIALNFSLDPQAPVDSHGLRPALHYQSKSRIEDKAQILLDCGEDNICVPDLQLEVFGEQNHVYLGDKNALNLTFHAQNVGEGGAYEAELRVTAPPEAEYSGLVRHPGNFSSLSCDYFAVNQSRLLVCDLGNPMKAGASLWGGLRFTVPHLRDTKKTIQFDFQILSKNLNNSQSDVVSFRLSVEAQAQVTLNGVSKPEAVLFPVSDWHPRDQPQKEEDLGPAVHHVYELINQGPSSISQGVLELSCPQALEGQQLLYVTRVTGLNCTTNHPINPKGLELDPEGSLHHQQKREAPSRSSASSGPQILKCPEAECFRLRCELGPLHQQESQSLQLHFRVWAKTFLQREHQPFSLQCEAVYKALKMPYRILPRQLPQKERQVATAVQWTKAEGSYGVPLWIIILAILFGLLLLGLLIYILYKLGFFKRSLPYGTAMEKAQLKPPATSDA
UniProt P05556: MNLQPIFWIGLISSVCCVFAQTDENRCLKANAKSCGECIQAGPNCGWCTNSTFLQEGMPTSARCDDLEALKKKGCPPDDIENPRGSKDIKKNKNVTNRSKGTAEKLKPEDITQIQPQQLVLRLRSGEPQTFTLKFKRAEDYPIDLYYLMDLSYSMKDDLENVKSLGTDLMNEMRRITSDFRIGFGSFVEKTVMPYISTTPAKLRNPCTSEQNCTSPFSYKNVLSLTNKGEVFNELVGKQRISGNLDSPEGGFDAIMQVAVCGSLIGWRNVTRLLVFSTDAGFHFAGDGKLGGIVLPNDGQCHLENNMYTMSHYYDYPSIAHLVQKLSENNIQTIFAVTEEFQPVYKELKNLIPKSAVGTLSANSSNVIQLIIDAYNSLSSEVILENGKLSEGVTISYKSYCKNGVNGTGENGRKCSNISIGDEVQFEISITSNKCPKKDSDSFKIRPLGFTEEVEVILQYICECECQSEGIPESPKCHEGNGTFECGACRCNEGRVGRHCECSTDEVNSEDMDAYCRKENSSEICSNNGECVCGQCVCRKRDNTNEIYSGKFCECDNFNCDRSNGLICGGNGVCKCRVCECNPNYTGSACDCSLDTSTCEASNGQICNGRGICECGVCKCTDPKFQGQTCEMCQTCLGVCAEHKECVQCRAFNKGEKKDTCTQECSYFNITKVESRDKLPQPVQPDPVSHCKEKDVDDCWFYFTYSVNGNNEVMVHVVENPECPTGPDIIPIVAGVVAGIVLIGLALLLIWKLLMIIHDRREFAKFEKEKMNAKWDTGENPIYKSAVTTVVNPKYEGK
UniProt P06756, residues 31-1048: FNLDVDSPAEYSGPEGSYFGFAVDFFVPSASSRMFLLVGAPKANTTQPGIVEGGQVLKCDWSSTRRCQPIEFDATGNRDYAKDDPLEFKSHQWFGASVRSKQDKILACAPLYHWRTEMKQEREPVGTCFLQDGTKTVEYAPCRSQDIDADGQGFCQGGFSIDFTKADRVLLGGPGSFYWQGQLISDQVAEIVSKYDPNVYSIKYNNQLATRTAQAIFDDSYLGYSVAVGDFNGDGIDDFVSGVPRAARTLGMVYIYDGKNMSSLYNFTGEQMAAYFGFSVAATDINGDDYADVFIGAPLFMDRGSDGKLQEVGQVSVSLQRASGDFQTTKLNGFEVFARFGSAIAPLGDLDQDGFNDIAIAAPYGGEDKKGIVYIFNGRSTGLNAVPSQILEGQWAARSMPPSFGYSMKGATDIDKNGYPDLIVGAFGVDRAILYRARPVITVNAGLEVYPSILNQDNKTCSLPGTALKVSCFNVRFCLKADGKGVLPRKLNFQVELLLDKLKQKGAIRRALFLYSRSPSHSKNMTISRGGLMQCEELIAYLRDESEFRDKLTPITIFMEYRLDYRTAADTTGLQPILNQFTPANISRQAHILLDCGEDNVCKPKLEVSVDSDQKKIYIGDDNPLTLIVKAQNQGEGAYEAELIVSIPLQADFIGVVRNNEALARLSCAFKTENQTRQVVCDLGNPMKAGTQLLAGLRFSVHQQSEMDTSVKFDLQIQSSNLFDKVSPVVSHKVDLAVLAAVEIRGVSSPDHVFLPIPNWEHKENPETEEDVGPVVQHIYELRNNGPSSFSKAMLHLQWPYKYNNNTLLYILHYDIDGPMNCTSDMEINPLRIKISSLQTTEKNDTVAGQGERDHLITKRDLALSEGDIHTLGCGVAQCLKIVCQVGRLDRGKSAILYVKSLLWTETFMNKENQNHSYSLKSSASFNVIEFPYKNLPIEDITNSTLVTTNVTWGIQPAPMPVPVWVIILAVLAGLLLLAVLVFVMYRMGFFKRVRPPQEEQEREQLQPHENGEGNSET

Legend:
Assay in all cases: chemical cross-linking of the biotinylated peptide on chilled cells, capture on Ni-NTA plates, detection with an antibody to the marker
integrin alpha 2 = integrin alpha 2 (UniProt P17301)
integrin beta 5 = integrin beta 5 (UniProt P18084)
integrin beta 3 = integrin beta 3 (UniProt P05106)
integrin alpha 5 = integrin alpha 5 (UniProt P08648)
integrin alpha 6 = target: T1, integrin alpha 6 (UniProt P23229)
T1 sequence (looked up): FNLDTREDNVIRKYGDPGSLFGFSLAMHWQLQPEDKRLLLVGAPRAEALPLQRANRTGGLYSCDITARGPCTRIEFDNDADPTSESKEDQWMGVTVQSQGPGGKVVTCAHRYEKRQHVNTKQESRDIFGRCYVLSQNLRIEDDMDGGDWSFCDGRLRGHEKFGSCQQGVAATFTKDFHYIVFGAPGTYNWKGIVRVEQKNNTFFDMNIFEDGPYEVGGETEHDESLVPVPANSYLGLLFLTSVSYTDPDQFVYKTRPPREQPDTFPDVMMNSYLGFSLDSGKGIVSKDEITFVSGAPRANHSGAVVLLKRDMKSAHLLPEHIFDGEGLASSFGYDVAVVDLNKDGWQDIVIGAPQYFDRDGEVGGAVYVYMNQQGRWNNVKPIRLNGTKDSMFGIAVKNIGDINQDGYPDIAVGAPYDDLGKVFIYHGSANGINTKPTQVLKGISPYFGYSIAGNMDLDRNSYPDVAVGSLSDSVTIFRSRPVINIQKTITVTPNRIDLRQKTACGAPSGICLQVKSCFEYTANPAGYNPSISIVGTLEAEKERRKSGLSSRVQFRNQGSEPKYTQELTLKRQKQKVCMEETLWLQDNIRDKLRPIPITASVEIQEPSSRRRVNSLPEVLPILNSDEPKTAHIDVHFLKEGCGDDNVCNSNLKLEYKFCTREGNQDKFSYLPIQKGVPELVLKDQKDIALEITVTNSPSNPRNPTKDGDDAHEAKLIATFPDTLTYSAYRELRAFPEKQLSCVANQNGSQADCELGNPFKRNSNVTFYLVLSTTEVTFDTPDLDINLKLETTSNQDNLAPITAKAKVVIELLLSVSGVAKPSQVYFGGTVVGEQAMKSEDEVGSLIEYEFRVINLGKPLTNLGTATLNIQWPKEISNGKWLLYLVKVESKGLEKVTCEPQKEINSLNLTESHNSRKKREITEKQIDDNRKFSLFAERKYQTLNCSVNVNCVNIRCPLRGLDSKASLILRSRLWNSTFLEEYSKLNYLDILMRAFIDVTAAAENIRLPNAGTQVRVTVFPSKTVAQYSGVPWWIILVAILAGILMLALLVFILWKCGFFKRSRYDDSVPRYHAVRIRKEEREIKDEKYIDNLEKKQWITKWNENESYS

integrin beta 1 = integrin beta 1 (UniProt P05556)
integrin alpha v = integrin alpha v (UniProt P06756)

- binding (integrin alpha 2): binds
- binding (integrin beta 5): binds
- binding (integrin beta 3): binds
- binding (integrin alpha 5): binds
- binding (integrin alpha 6): binds
- binding (integrin beta 1): binds
- binding (integrin alpha v): binds
Binder: KKGFYKKKQCRPSKGRKRGFCWAVDKYG (biotinylated (position not stated at this place)) [MBD21 peptide (biotinylated)]
